The values below come from article PMC3361267 (Journal of Medicinal Chemistry, 2012).

Each structure is given as a SMILES string.

The target of data set [1] is T1, OATP2B1 (Homo sapiens, UniProt O94956).
T1 sequence (O94956 1-709): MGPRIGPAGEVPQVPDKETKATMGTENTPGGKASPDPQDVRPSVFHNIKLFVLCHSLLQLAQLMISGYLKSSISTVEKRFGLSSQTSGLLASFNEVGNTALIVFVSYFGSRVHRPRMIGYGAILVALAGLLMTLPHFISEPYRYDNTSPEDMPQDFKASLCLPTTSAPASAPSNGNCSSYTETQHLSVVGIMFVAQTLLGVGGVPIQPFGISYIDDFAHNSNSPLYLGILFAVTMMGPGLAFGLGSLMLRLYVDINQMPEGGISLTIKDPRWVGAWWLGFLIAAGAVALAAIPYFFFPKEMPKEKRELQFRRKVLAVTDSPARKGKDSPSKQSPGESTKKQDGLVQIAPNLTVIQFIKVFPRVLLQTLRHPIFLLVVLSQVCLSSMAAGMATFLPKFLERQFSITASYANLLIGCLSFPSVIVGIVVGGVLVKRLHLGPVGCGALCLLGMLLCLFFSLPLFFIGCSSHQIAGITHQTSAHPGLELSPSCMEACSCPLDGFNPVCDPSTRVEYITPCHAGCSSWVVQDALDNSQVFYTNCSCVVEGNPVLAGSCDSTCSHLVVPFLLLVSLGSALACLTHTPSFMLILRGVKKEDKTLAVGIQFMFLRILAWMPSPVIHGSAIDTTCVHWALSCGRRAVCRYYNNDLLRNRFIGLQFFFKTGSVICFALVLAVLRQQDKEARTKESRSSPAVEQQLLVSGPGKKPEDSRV
The note with it: without inhibitor.

The target in a further data set is T2, OATP1B1 (Homo sapiens, UniProt Q9Y6L6).
T2 sequence (Q9Y6L6 1-691): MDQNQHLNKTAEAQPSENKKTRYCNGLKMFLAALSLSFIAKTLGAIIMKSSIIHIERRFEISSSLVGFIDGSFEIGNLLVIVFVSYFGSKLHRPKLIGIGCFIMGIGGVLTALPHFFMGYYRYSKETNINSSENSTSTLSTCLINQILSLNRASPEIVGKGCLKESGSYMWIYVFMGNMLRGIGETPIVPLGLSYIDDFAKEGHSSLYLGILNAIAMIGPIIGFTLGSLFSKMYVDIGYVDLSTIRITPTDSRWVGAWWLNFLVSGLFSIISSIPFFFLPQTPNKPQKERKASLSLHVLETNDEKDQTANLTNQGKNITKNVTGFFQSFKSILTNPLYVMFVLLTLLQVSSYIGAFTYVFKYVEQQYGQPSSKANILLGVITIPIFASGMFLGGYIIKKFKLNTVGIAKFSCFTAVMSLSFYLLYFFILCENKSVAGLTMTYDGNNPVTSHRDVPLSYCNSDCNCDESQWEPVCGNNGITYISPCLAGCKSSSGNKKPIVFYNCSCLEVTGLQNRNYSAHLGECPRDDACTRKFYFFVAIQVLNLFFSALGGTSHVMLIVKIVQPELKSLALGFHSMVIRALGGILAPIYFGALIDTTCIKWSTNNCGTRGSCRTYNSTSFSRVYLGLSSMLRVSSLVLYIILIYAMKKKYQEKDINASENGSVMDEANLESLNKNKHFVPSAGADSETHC
The note with it: without inhibitor.

Data set [2] concerns the target T1, OATP2B1. Put plainly: Transport kinetics of substrate uptake in OATP2B1-HEK293 cells. Type of data set: cell-based. The note with it: OATP2B1 mediated uptake.
For data set [3] the following is noted: cited from earlier work.

The Km is the substrate concentration at which the rate is half of its maximum. For the compound `CC(C)c1c(C(=O)Nc2ccccc2)c(-c2ccccc2)c(-c2ccc(F)cc2)n1CC[C@@H](O)C[C@@H](O)CC(=O)O` [atorvastatin, Atorvastatin], the “OATP2B1 contribution to the overall uptake CL of atorvastatin” value on OATP2B1 [1] is 6%. In addition, on OATP1B1, the “OATP1B1 contribution to the overall uptake CL of atorvastatin” value is 52%. Further, at OATP1B1 (human liver in vivo, extrapolated with MTA), the “OATP1B1 predicted CLint,uptake of atorvastatin” value is given as 450 μL/min/g liver. Further, at OATP2B1 [2], the Km was determined as 2.84 ± 1.63 µM and the Vmax amounted to 24.27 ± 8.12 pmol/mg protein/min. Also, in data set [3], the “Cmax,unbound” value is reported as 2 nM.
